From paper PMC3084824
No constants are given. Whether binding was seen depends on the method and setting. Binding seen in cells or lysates may run through a third protein. Some binding calls cover weakened binding; strength is not graded here. For some assays here: Where a sequence is shown, tags or fusion partners need not be part of it.

By UniProt entry, the sequences of proteins in these tests, tags left out. Residues count along the entry.
UniProt Q15109, residues 23-404: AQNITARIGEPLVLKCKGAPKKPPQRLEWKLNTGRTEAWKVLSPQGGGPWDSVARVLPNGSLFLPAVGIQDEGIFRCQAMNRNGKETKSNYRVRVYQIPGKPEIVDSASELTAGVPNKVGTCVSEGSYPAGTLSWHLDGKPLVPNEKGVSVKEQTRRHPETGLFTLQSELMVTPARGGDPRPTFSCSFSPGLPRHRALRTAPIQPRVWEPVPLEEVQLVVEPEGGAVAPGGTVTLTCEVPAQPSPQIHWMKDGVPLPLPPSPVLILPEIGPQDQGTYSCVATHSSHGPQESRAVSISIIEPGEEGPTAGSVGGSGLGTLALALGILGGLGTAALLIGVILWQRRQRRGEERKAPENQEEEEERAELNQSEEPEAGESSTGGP

Columns and labels:
[1] = biological target: T1, S100A14 (endogenous, KYSE180 cells) (human (endogenous in KYSE180)) (UniProt Q9HCY8); test: co-IP; KYSE180 cell lysates immunoprecipitated with anti-S100A14 polyclonal antibodies at 4°C overnight; RAGE detected by Western blotting
T1 sequence: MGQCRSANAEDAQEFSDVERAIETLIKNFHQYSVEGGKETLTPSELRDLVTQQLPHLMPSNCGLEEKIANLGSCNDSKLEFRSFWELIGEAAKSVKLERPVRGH

[2] = biological target: T2, human recombinant S100A14 protein (histidine-tagged fusion protein) (human) (UniProt Q9HCY8); test: pull-down; purified His-tagged S100A14 (10 µg) on His-resin beads, 4°C 1 h, then KYSE180 cell lysates overnight at 4°C; eluted with 2×SDS sample buffer; blot with a RAGE polyclonal antibody; only the target purified
T2 sequence: T1 sequence

What does the source list for “receptor for advanced glycation end products (RAGE) (from UniProt Q15109 23-404)”?
binding [1]: binds; binding [2]: binds
